Data on two molecules can be found in paper PMC12376557.

No constants are given. Whether binding was seen depends on the method and setting. Binding seen in cells or lysates may run through a third protein. Some entries that bind do so weakly or less than the wild type. For part of these data: Sequences can lack the tags named with a protein.

For test [1], the target named is T1, NAT10-Flag (N-acetyltransferase 10, exogenously expressed) (UniProt Q9H0A0).
T1 sequence: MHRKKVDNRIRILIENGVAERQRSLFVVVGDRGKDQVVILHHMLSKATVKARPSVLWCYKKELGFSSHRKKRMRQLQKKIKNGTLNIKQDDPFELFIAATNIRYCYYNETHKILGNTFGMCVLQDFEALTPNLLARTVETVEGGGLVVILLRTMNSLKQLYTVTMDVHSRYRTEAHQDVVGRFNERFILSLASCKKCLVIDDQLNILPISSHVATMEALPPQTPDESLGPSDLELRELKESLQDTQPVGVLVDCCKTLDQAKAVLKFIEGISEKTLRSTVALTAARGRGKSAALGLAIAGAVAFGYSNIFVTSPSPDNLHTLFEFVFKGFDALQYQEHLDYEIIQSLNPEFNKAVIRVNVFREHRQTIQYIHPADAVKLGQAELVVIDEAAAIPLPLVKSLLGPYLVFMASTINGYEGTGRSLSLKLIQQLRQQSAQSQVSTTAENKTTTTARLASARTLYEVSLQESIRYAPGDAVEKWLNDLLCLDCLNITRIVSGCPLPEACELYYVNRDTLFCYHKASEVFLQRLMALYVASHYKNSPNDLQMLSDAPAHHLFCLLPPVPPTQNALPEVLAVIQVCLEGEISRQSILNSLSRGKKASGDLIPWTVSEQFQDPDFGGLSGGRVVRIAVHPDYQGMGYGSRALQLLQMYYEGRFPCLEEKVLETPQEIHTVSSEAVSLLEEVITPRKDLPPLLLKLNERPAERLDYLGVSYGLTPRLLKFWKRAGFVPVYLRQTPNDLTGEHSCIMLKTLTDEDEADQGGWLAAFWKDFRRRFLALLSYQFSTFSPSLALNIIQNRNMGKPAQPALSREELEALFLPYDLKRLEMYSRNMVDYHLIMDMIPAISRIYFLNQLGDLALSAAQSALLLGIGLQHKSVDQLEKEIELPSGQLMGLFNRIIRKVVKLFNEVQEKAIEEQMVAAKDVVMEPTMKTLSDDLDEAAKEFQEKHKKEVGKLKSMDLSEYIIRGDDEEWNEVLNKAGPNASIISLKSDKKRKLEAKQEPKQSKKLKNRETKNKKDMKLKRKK
The test is described as follows: co-IP; KYSE150Luc and KYSE410Luc cells co-transfected with NAT10-Flag and USP39-HA plasmids, with or without G-749 (5 uM); 1 mg total protein, primary antibody overnight at 4 C, beads 6 h; normal IgG as negative control; Western blot. For orientation: Immunoblotting shows a protein as a band on a membrane.

Test [2] has as its target T2, GST-NAT10 (full-length NAT10, recombinant) (UniProt Q9H0A0).
T2 sequence: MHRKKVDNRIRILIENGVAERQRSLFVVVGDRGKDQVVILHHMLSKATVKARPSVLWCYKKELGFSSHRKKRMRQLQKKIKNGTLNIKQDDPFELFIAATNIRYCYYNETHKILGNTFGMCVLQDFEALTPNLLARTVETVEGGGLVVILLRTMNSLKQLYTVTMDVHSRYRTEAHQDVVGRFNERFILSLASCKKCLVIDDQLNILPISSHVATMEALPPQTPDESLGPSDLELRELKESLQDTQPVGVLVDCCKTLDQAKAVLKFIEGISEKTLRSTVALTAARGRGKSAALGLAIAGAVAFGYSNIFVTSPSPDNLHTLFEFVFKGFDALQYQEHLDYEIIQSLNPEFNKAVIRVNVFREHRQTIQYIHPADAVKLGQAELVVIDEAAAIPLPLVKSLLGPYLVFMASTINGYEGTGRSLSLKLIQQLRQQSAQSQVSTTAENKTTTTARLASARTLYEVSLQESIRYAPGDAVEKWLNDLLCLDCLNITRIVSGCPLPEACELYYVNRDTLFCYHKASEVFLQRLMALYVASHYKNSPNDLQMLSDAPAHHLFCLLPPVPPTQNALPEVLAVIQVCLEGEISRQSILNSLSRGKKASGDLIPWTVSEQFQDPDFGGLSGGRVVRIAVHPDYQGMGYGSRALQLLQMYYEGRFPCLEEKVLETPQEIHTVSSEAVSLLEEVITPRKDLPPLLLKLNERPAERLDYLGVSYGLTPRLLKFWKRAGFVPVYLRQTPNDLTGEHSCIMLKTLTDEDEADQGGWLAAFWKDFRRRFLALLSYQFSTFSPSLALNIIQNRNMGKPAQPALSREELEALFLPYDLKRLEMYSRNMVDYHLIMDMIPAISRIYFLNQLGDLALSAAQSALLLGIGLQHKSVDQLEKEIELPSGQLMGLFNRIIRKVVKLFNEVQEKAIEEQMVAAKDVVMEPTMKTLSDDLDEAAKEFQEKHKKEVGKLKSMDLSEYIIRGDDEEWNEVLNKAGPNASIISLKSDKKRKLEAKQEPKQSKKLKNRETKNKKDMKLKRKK
The experiment in a line: pull-down; 10 ug GST-NAT10 protein on glutathione beads, 1 mg total protein from ESCC cells (KYSE150Luc or KYSE410Luc), with or without 5 uM G-749, incubated overnight in vitro; Western blot; only the target purified.

Test [3] concerns the target T3, endogenous NAT10 (N-acetyltransferase 10) (human (endogenous in ESCC cell lines)) (UniProt Q9H0A0).
T3 sequence: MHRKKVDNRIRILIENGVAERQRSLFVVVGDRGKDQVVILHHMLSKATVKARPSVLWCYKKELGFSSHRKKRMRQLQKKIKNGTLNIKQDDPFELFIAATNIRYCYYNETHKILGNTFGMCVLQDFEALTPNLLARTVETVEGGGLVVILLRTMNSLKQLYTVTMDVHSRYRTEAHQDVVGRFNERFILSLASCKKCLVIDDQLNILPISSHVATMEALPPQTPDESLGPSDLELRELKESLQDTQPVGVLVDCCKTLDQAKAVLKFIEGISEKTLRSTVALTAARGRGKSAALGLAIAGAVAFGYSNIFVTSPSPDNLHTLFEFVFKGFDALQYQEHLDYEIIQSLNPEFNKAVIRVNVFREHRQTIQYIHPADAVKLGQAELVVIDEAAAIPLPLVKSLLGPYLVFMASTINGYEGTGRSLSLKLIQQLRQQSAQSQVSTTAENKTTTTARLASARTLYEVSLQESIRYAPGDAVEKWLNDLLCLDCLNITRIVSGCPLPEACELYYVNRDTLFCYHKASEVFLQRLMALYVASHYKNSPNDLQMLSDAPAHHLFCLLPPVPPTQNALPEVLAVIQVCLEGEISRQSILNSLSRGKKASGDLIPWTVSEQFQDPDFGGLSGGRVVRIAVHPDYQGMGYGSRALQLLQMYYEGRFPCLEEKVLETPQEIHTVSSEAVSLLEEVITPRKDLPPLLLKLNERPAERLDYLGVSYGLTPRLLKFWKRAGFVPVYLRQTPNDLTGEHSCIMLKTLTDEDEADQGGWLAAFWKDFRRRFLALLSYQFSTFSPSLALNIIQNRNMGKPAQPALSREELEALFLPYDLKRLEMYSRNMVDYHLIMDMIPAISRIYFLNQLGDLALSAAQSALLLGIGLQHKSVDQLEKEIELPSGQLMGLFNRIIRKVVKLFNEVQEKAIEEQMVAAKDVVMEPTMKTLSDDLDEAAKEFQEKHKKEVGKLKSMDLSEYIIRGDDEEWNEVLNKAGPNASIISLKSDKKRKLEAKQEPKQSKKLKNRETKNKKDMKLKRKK
The experiment in a line: co-IP; endogenous NAT10 or USP39 in ESCC cells, with or without G-749; 1 mg total protein, primary antibody overnight at 4 C, beads 6 h; Western blot.

B1: USP39-HA (Ubiquitin-specific Peptidase 39, exogenously expressed) (enzyme, UniProt Q53GS9 1-565)
chain: MSGRSKRESRGSTRGKRESESRGSSGRVKRERDREREPEAASSRGSPVRVKREFEPASAREAPASVVPFVRVKREREVDEDSEPEREVRAKNGRVDSEDRRSRHCPYLDTINRSVLDFDFEKLCSISLSHINAYACLVCGKYFQGRGLKSHAYIHSVQFSHHVFLNLHTLKFYCLPDNYEIIDSSLEDITYVLKPTFTKQQIANLDKQAKLSRAYDGTTYLPGIVGLNNIKANDYANAVLQALSNVPPLRNYFLEEDNYKNIKRPPGDIMFLLVQRFGELMRKLWNPRNFKAHVSPHEMLQAVVLCSKKTFQITKQGDGVDFLSWFLNALHSALGGTKKKKKTIVTDVFQGSMRIFTKKLPHPDLPAEEKEQLLHNDEYQETMVESTFMYLTLDLPTAPLYKDEKEQLIIPQVPLFNILAKFNGITEKEYKTYKENFLKRFQLTKLPPYLIFCIKRFTKNNFFVEKNPTIVNFPITNVDLREYLSEEVQAVHKNTTYDLIANIVHDGKPSEGSYRIHVLHHGTGKWYELQDLQVTDILPQMITLSEAYIQIWKRRDNDETNQQGA
As for B1, the binding result in test [1] is “binds”.

B2: endogenous USP39 (Ubiquitin-specific Peptidase 39) (enzyme, UniProt Q53GS9 1-565)
chain: MSGRSKRESRGSTRGKRESESRGSSGRVKRERDREREPEAASSRGSPVRVKREFEPASAREAPASVVPFVRVKREREVDEDSEPEREVRAKNGRVDSEDRRSRHCPYLDTINRSVLDFDFEKLCSISLSHINAYACLVCGKYFQGRGLKSHAYIHSVQFSHHVFLNLHTLKFYCLPDNYEIIDSSLEDITYVLKPTFTKQQIANLDKQAKLSRAYDGTTYLPGIVGLNNIKANDYANAVLQALSNVPPLRNYFLEEDNYKNIKRPPGDIMFLLVQRFGELMRKLWNPRNFKAHVSPHEMLQAVVLCSKKTFQITKQGDGVDFLSWFLNALHSALGGTKKKKKTIVTDVFQGSMRIFTKKLPHPDLPAEEKEQLLHNDEYQETMVESTFMYLTLDLPTAPLYKDEKEQLIIPQVPLFNILAKFNGITEKEYKTYKENFLKRFQLTKLPPYLIFCIKRFTKNNFFVEKNPTIVNFPITNVDLREYLSEEVQAVHKNTTYDLIANIVHDGKPSEGSYRIHVLHHGTGKWYELQDLQVTDILPQMITLSEAYIQIWKRRDNDETNQQGA
Consider B2, for which the binding entry in test [2] and in test [3] was “binds” in each case.
